Results on three molecules are retold here after article PMC5124709.

Amino acid sequences for entries named in this document (tags omitted). Residues count along the entry.
UniProt Q07009, residues 20-700: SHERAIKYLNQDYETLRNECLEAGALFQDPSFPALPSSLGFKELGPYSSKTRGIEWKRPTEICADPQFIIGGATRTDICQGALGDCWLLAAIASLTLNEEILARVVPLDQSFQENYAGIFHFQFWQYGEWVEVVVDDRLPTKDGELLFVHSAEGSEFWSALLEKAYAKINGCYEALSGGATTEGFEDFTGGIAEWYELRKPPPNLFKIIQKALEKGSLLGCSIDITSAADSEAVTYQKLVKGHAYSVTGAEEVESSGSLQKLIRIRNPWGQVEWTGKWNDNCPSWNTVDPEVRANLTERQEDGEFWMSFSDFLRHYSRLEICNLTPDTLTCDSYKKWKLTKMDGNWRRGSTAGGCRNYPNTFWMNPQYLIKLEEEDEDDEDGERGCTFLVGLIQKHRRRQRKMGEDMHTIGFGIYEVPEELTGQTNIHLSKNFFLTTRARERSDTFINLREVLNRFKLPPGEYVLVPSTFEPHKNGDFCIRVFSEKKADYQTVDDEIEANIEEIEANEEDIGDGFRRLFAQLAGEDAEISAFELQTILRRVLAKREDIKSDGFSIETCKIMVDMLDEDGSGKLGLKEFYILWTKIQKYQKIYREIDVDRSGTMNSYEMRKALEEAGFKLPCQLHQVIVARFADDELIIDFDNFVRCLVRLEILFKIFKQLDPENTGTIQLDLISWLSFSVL
UniProt P97571: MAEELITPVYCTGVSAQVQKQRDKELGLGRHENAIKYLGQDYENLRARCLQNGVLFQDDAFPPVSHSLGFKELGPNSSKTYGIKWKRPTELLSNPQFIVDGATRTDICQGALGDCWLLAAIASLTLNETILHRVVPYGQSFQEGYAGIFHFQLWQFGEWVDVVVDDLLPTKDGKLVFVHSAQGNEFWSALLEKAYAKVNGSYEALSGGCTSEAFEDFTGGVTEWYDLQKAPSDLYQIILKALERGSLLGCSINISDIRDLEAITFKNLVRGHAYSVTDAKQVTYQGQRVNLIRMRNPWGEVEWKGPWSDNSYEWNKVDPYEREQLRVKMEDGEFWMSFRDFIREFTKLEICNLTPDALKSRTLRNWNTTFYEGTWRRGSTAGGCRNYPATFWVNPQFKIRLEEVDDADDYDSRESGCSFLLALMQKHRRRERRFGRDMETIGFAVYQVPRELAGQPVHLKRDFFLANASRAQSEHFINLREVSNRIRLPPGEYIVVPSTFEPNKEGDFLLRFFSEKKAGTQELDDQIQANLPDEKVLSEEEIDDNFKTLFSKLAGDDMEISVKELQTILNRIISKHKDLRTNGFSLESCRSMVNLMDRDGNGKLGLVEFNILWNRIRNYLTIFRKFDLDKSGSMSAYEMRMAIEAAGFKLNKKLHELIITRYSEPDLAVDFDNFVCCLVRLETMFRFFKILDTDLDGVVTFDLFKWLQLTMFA

Results are given in words; binding and its absence hold for the method and conditions named. Binding seen in cells or lysates may run through a third protein. Some entries that bind do so weakly or less than the wild type. For some assays here: Tags and fused reporters may be left off the sequences shown.

The target of test [1] is T1, Histone deacetylase 3 (HDAC3), endogenous (rat (endogenous in primary cultured cortical neurons)) (UniProt Q6P6W3).
T1 sequence: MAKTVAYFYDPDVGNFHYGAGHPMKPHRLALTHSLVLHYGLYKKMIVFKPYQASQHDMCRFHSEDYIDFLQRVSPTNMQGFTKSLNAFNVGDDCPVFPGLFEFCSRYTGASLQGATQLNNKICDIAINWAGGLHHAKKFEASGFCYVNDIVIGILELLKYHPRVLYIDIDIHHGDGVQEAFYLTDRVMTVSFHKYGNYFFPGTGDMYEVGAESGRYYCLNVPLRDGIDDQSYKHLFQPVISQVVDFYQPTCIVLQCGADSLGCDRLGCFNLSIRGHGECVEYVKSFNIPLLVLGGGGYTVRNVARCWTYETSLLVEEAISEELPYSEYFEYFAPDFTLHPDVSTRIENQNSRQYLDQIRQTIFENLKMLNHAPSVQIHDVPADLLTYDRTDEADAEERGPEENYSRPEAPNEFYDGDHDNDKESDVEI
The test can be described thus: co-IP; as a1, cells under normal conditions (no preconditioning).

Test [2] concerns the target HA-tagged WT HDAC3 (human) (UniProt O15379). The test can be described thus: co-IP; PC12 cells transfected with HA-HDAC3 constructs, PC performed 36 h later; whole cell lysates immunoprecipitated with anti-HA, immunoblotted with anti-calpain1 or anti-calpain2.
Test [3] addresses T1, Histone deacetylase 3 (HDAC3), endogenous (rat (endogenous in primary cultured cortical neurons)). The test can be described thus: co-IP; endogenous proteins; NP-40 lysate of cells with or without preconditioning (PC); anti-HDAC3, anti-calpain1 or anti-calpain2 overnight at 4°C, Protein A/G magnetic beads; immunoblot; interaction strengthened after PC.
Test [4] concerns the target calpain2, endogenous (rat (endogenous in primary cultured cortical neurons and in PC12 cells)) (UniProt Q07009). Described as above.
Test [5] deals with calpain1, endogenous (rat (endogenous in primary cultured cortical neurons and in PC12 cells)) (UniProt P97571). Described as above.

With “calpain1, endogenous (from UniProt P97571 1-713) (enzyme)”, the binding entry is “binds weakly” in test [1], “binds” in test [2] and “binds” in test [3].
For “calpain2, endogenous (from UniProt Q07009 20-700) (enzyme)”, the binding entry in test [1] is “binds weakly”; in test [2] it was “binds”; in test [3], “binds”.

B1: Histone deacetylase 3 (HDAC3), endogenous (protein, UniProt Q6P6W3 1-428)
chain: T1 sequence
Consider B1, for which the binding entry in test [4] and in test [5] was “binds” each time.
